Earlier results in patent EP4166560A1, “TRI-SUBSTITUTED TETRAHYDROFURANS AND USE THEREOF” (Consejo Superior de Investigaciones Cientificas, priority 2021, dated 2023).
pIC50: −log10 of the molar value. At least one structure is not confirmed: it was looked up by name or label, or the drawing left a doubt.

Tested on: SARS-CoV-2
Conditions: in vitro; Pizzorno et al. 2020; read-out: IC50 against SARS-CoV-2; cited from earlier work

CCC(CC)COC(=O)[C@H](C)N[P@](=O)(OC[C@H]1O[C@@](C#N)(c2ccc3c(N)ncnn23)[C@H](O)[C@@H]1O)Oc1ccccc1 [Remdesivir]
pIC50: ~6.00
